Paper PMC7457527
These are yes or no findings as the source states them, for the method shown. In cells and extracts the contact can be indirect. Some results given as binding are weak or reduced against the parent protein; the word gives no strength.

By UniProt entry, the sequences of proteins in these tests, tags left out. Residues count along the entry.
UniProt P70302, residues 23-685: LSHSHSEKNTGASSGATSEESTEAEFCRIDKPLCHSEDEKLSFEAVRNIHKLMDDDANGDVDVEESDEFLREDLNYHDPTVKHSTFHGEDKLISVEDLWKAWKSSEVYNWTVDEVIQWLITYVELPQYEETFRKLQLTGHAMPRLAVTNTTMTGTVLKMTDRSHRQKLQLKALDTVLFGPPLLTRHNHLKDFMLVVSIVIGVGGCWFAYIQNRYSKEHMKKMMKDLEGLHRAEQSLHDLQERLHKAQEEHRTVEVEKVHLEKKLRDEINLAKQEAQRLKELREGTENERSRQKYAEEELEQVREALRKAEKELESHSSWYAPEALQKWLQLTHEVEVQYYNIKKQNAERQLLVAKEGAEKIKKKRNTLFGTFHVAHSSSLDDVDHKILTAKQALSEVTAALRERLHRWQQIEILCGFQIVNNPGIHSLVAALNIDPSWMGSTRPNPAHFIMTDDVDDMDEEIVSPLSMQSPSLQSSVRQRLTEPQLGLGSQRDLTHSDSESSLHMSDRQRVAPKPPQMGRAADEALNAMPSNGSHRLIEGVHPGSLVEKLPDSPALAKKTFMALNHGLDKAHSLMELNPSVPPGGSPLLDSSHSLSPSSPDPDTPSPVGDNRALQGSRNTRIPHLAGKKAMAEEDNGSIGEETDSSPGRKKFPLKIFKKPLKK

Molecular target: endogenous STIM1 of mouse vascular smooth muscle cells (mouse (endogenous in aortic VSMCs)) (UniProt P70302)
Assay: co-IP; endogenous proteins of mouse aortic smooth muscle cells; extraction in 1% Nonidet P-40, 150 mmol/L NaCl, 20 mmol/L Tris-HCl pH 8.0; IP with anti-TRPP2 or anti-STIM1 overnight at 4 °C (no antibody as control), immunoblot

B1: endogenous TRPP2 of mouse vascular smooth muscle cells (protein, UniProt O35245 1-966)
chain: MVNSRRVQPQPPGDAGRSPAPRASGPGRLVAGGAGLAVPGGLGEQRGLEIEMERIRQAAARDPPAGASASPSPPLSSCSRQAWSRDNPGFEAEEDDDDDEVEGEEGGMVVEMDVEWRPGSRRSASSSAVSSVGARGRGLGSYRGAAHLSGRRRRLEDQGAQCPSPAGGGDPLHRHLPLEGQPPRVAWAERLVRGLRGLWGTRLMEESNANREKYLKSVLRELVTYLFFLVVLCILTYGMMSSNVYYYTRTLSQLFIDTPVSKTEKTNFKTLSSMEDFWKFTEGSFLDGLYWKAQTSNHTQADNRSFIFYENLLLGVPRLRQLRVRNGSCSIPQDLRDEIKECYDVYSVSSEDRAPFGPRNGTAWMYTSEKELNGSSHWGIIASYSGAGYYLDLSRTREETAAQLAGLRRNFWLDRGTRAAFIDFSVYNANINLFCVVRLLAEFPATGGVVPSWQFQPVKLIRYVTAFDFFLAACEIIFCFFIIYYVVEEILEIRIHRLSYFRSFWNCLDVVIVVLSVVAMVINIYRMSNAEGLLQFLEDQNSFPNFEHVAYWQIQFNNISAVMVFLVWIKLFKFINFNRTMSQLSTTMSRCAKDLFGFTIMFSIIFLAYAQLAYLVFGTQVDDFSTFQECIFTQFRIILGDINFAEIEEANRVLGPLYFTTFVFFMFFILLNMFLAIINDSYSEVKSDLAQQKAEMELSDLIRKGCQKALVKLKLKRNTVDAISESLRQGGGKLNFDELRQDLKGKGHTDAEIEAIFTKYDQDGDQELTEREHQQMRDDLEKEREDLDLEHSSLPRPMSSRSFPRSLDDSEEEDDEDSGHSSRRRGSISSGVSYEEFQVLVRRVDRMEHSIGSIVSKIDAVIVKLEIMERAKLKRREVLGRLLDGVAEDARLGRDSEIHREQMERLVREELERWESDDAASQTGHGVSTQVGLGGQPHPRNPRPPSSQSAEGLEGGGGNGSANVHA
In the case of B1, the binding is reported as “binds”.
